The assay deals with T1, C-terminally his6-tagged PP2A (serine/threonine protein phosphatase PP2A of Sulfolobus acidocaldarius) (Sulfolobus acidocaldarius) (UniProt Q4JAD1).
T1 sequence: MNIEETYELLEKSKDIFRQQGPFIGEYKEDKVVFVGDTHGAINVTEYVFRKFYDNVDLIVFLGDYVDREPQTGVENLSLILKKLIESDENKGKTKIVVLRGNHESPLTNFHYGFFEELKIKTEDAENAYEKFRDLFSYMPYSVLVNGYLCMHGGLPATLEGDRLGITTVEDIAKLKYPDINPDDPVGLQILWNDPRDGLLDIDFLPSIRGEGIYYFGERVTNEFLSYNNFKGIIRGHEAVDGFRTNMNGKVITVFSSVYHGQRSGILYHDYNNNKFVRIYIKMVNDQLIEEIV
The assay is described as follows: pull-down; co-purification: 500 μL of each purified protein (0.5 mg/mL) mixed, 55°C for 30 min, applied to IMAC (Ni-NTA) resin that holds PP2A-his, washed, eluted with imidazole; Western blot with α-His and α-Strep; without or with pre-incubation of SaUspA with 1 mM ATP, 5 mM MgCl2 at 25°C for 30 min; both purified.

No constants are given. Whether binding was seen depends on the method and setting. Binding seen in cells or lysates may run through a third protein. Binding calls can cover weak binding; strength is not graded here. Tags and fused reporters may be left off the sequences shown.

As to “StrepII-tagged SaUspA^G97A (ATP-binding deficient mutant of SaUspA) (Sulfolobus acidocaldarius)”, the binding entry is “binds”.

Values taken from PMC7693658, “SaUspA, the Universal Stress Protein of Sulfolobus acidocaldarius Stimulates the Activity of the PP2A Phosphatase and Is Involved in Growth at High Salinity” (Frontiers in Microbiology, 2020).
